Data on 20 compounds can be found in the supplement of paper PMC10973195.

± gives the standard deviation of the averaged measurements. This is one part of the list. Values are raw readings; no control value is given beside them.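 A neuron, microglia and astrocyte co-culture models inflammatory neurodegeneration: bacterial LPS drives microglia-dependent neuron loss. Each compound was tested against DMSO vehicle wells on the same plates; BAY61-3606, a SYK inhibitor, was the reference neuroprotective control.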

The test system of the first experiment is rat primary cerebellar neuron-glia coculture. The experiment in a line: necrotic cell count (DRAQ7+) per image field (cells per field); higher = more necrosis. The following applies: LPS 0 ng/mL; 1 µM; treatment time 3 days. The protocol: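 Primary rat (P3-7) cerebellar neuron-glia cocultures in 384-well plates were treated at DIV7 with 1 uM compound, then with or without 100 ng/mL LPS 30 min later, for 3 days. At DIV10 live cells were stained with Hoechst 33342, NeuO (live neurons), IB4-AF594 (microglia) and DRAQ7 (necrotic cells) and imaged at 10x (4 fields per well, IN Cell Analyzer 6000). Cells were classified with Cellpose/CellProfiler plus a Random Trees classifier. Values are per-well mean counts per image field (raw, not min-max normalised) and the median microglial FormFactor per image. Three technical replicates per repeat across 4 biological repeats; DMSO and BAY61-3606 serve as controls.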
With `CCn1c2ccccc2c2cc(NC(=O)N3CCOCC3)ccc21`, the necrotic cell count turned out to be 64.3 ± 53.
Still for that read-out and setting: the result for `CC1(C)Oc2ncnc(N)c2N=C1c1ccc(C23CCC(CC(=O)O)(CC2)CC3)cc1` reads 74.9 ± 27; that for `Nc1ccccc1NC(=O)c1ccc(CNC(=O)OCc2cccnc2)cc1`, 468 ± 160.
On the same count and under the same terms, the result for `CC(=O)Nc1ccc(O)cc1` reads 84 ± 28; that for `CCCc1cc(C)[nH]c(=O)c1CNC(=O)c1cc(-c2ccnc(N3CCN(C)CC3)c2)cc2c1cnn2C(C)C`, 63.8 ± 27.
Consider `COc1ccc(N2CCOCC2)c2sc(NC(=O)N3CCC(C)(O)CC3)nc12`, for which the necrotic cell count is 84.4 ± 29.
The same measure, in the same setting: as for `COc1ccc(COC(=O)C2=C(C)NC(=O)NC2c2ccccc2)cc1` (stereo not given), the figure is 89.9 ± 18; as for `CC[C@@H]1[C@@H](C)[C@H](Nc2ccccc2)c2ccccc2N1C(=O)c1ccc(Br)cc1`, 75.1 ± 28.
Still for that read-out and setting: as for `CCN(CC)C(=O)Cc1csc(NS(=O)(=O)c2cccc(Cl)c2C)n1`, the figure is 90 ± 38.
Still for that read-out and setting: the result for `O=C(Nc1cccc2c(=O)cc(-c3nnn[nH]3)oc12)c1ccc(OCCCCc2ccccc2)cc1` reads 90.7 ± 31.
On to `O=c1[nH]c2cc(Cl)ccc2c(O)c1-c1cccc(Oc2ccccc2)c1`, for which the necrotic cell count worked out at 92.3 ± 31.
In turn, `COc1cc(-c2cc(-c3cccc(O)c3)cnc2N)cc(OC)c1OC` displayed a necrotic cell count of 122 ± 76.
On the same count and under the same terms, the result for `CCOc1ccc2oc(C(=O)NC(CCSC)c3nc4ccccc4[nH]3)c(C)c2c1` (stereo not given) reads 79.7 ± 32; that for `Cc1nc(-c2cnn(C)c2-c2ccc(C(F)(F)F)cn2)c2c(N3CCC3)ncnn12`, 83.2 ± 32; that for `O=c1cc(-c2cccc3c2Sc2ccccc2S3)oc(N2CCOCC2)c1`, 98.8 ± 64.
In turn, `COc1ccc(-c2c(C)nn3c(NCCN4CCOCC4)cc(C)nc23)cc1OC` came in with a necrotic cell count of 98.5 ± 32.
Still for that read-out and setting: the result for `O=C(N[C@@H](c1ccccc1)[C@@H]1CCCCN1)c1cccc(C(F)(F)F)c1Cl` reads 95.8 ± 38; that for `Oc1cc2c(cc1O)C(c1ccccc1)CNCC2` (stereo not given), 98.3 ± 45; that for `CC1(C)Cc2c(c(N3CCOCC3)nc3sc4c(NCCN5CCOCC5)ncnc4c23)CO1`, 85.4 ± 36.
`CN(C)CCNC(=O)c1cccn2c(=O)c3cc4ccccc4cc3nc12` displayed a necrotic cell count of 86.9 ± 49.

Staying with this experiment, now noted: LPS 100 ng/mL; 1 µM; treatment time 3 days.
Consider `CCn1c2ccccc2c2cc(NC(=O)N3CCOCC3)ccc21`, for which the necrotic cell count came to 763 ± 440.
Same read-out and setting: as for `CC1(C)Oc2ncnc(N)c2N=C1c1ccc(C23CCC(CC(=O)O)(CC2)CC3)cc1`, the figure is 804 ± 320; as for `Nc1ccccc1NC(=O)c1ccc(CNC(=O)OCc2cccnc2)cc1`, 1800 ± 450.
Still for that read-out and setting: the result for `CC(=O)Nc1ccc(O)cc1` reads 773 ± 230; that for `CCCc1cc(C)[nH]c(=O)c1CNC(=O)c1cc(-c2ccnc(N3CCN(C)CC3)c2)cc2c1cnn2C(C)C`, 671 ± 380; that for `COc1ccc(N2CCOCC2)c2sc(NC(=O)N3CCC(C)(O)CC3)nc12`, 889 ± 410.
Same read-out and setting: as for `COc1ccc(COC(=O)C2=C(C)NC(=O)NC2c2ccccc2)cc1` (stereo not given), the figure is 758 ± 350; as for `CC[C@@H]1[C@@H](C)[C@H](Nc2ccccc2)c2ccccc2N1C(=O)c1ccc(Br)cc1`, 870 ± 310.
Take `CCN(CC)C(=O)Cc1csc(NS(=O)(=O)c2cccc(Cl)c2C)n1`: the necrotic cell count is 970 ± 220.
On the same count and under the same terms, the result for `O=C(Nc1cccc2c(=O)cc(-c3nnn[nH]3)oc12)c1ccc(OCCCCc2ccccc2)cc1` reads 970 ± 330; that for `O=c1[nH]c2cc(Cl)ccc2c(O)c1-c1cccc(Oc2ccccc2)c1`, 949 ± 300.
Still for that read-out and setting: the result for `COc1cc(-c2cc(-c3cccc(O)c3)cnc2N)cc(OC)c1OC` reads 1030 ± 370.
`CCOc1ccc2oc(C(=O)NC(CCSC)c3nc4ccccc4[nH]3)c(C)c2c1` (stereo not given): the necrotic cell count was 944 ± 420.
On the same count and under the same terms, as for `Cc1nc(-c2cnn(C)c2-c2ccc(C(F)(F)F)cn2)c2c(N3CCC3)ncnn12`, the figure is 993 ± 220.
The same measure, in the same setting: the result for `O=c1cc(-c2cccc3c2Sc2ccccc2S3)oc(N2CCOCC2)c1` reads 1430 ± 530; that for `COc1ccc(-c2c(C)nn3c(NCCN4CCOCC4)cc(C)nc23)cc1OC`, 1260 ± 550.
Turning to `O=C(N[C@@H](c1ccccc1)[C@@H]1CCCCN1)c1cccc(C(F)(F)F)c1Cl`, the necrotic cell count worked out at 967 ± 330.
Same read-out and setting: the result for `Oc1cc2c(cc1O)C(c1ccccc1)CNCC2` (stereo not given) reads 954 ± 390.
On to `CC1(C)Cc2c(c(N3CCOCC3)nc3sc4c(NCCN5CCOCC5)ncnc4c23)CO1`, for which the necrotic cell count stood at 1110 ± 230.
Same read-out and setting: the result for `CN(C)CCNC(=O)c1cccn2c(=O)c3cc4ccccc4cc3nc12` reads 1060 ± 350.
